The data set concerns TNFα. Put plainly: Liver TNFα levels by sandwich ELISA. It is filed as in vivo, mice.

Consider dextran sodium sulfate [DSS], for which the “liver TNFα levels, with versus without DSS” value (WT mice) is “no difference”. Also, where the note is “cftr−/− mice”, the “liver TNFα levels, absence versus presence of DSS” value is “no statistically significant difference”.

The values are drawn from patent US7981915B2, “Methods for modulating PPAR biological activity for the treatment of diseases caused by mutations in the CFTR gene” (Beth Israel Deaconess Medical Center, priority 2003, dated 2011).
